Results are given in words; binding and its absence hold for the method and conditions named. Binding seen in cells or lysates may run through a third protein. Some binding calls cover weakened binding; strength is not graded here. For some of these results: Sequences can lack the tags named with a protein. Blank lines part the entries; values can stand above or below the binder they belong to.
Columns and labels:
[1] = target: Flag-tagged NLRP3 (UniProt Q8R4B8); test: co-IP; HEK293T cells co-transfected with Flag-tagged NLRP3 and V5-tagged Ufl1; 0.3% NP-40 lysis buffer; IP with Flag beads or with V5 antibody
[2] = target: Myc-tagged NLRP3 (UniProt Q8R4B8); test: co-IP; HEK293T cells co-transfected with Myc-tagged NLRP3 or NLRP3 mutants and Ufl1 or Flag-tagged Ufl1 truncations; 0.3% NP-40 lysis buffer; IP with anti-Flag or anti-c-Myc beads for 3 h
[3] = target: T1, caspase-1 (co-immunoprecipitation of Figure S3C) (UniProt P29452); test: co-IP; co-immunoprecipitation of Ufl1 with inflammasome components (Figure S3C); cells and constructs not told in the text shown
T1 sequence: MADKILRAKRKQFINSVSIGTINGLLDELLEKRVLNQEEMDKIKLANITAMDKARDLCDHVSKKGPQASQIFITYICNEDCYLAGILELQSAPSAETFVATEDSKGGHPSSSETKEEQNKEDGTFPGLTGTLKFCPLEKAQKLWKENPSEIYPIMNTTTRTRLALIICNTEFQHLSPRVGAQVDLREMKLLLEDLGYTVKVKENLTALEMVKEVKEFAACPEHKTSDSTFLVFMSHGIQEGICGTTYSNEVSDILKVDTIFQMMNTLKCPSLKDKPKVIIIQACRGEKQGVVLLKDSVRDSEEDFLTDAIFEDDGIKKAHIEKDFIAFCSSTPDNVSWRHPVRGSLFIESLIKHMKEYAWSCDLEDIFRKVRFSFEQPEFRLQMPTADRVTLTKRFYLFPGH

Protein sequences, listed by entry. Tags and fused reporters are not part of them.
UniProt Q8R4B8: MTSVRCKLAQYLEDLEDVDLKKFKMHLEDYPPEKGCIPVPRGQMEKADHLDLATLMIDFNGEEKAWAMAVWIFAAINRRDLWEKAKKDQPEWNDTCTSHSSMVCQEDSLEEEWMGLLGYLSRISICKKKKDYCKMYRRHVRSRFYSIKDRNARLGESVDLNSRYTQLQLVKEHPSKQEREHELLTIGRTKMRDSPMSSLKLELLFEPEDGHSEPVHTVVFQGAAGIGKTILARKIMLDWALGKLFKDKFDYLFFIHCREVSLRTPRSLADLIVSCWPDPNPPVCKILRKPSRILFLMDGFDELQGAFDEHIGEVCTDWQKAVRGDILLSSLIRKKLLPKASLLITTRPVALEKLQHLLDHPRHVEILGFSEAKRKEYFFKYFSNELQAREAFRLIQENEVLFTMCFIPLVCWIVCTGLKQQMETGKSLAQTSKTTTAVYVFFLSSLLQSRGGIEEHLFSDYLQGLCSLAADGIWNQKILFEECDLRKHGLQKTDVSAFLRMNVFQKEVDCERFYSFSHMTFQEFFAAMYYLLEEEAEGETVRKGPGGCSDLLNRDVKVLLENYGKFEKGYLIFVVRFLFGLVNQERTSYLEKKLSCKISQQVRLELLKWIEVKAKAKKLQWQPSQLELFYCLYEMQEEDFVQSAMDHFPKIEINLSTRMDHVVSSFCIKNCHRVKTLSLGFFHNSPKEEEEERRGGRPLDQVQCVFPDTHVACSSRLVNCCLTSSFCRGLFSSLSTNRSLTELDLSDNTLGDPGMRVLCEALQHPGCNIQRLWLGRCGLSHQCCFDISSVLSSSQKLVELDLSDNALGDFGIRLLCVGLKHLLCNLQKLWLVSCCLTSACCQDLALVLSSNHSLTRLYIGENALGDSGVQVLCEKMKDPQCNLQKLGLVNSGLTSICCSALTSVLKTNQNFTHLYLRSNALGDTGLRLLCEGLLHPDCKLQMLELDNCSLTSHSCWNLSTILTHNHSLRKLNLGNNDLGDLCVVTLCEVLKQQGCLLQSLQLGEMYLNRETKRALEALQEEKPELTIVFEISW

[4] = target: T2, ASC (co-immunoprecipitation of Figure S3C) (UniProt Q9EPB4); test: as above
T2 sequence: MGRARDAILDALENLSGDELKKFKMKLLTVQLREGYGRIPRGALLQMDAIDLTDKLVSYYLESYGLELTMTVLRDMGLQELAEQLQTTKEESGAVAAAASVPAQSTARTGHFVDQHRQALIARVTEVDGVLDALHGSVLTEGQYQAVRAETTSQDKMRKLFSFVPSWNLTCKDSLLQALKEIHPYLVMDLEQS

binding [1]: binds
B1: V5-tagged Ufl1 (protein, UniProt Q8CCJ3 1-793)
chain: MADAWEEIRRLAADFQRAQFAESTQRLSERNCIEIVNKLISQKQLEVVHTLDGKEYITPAQISKEMRDELHVRGGRVNIVDLQQVINVDLTHIESRVSDIIKSEKHVQMVLGQLIDENYLDQLSEEVNDKLQESGQVTVSELCKAYDLPGDFLTQALTQRLGRIINGHLDLDNRGVIFTEAFVARHKARIRGLFSAITRPTPVNSLVSKYGFQEQLLYSVLEDLVSTGRLRGTVVGGRQDKAVFVPDIYSRTQSTWVDSFFRQNGYLEFDALSRLGIPDAVNYIKKRYKNTQLLFLKATCVGQGLVDQVEASVEEAISSGTWVDISPLLPSSLSVEDAAMLLQQVMRPFGKLASAIVFSDTVVVSEKFITDCTGLFSERMHQKAEKEMKNNPVHLITEEDLKQISILESVNTSKKDKKDERRKKATEGSGSVRGGGGGNAREYKIKKTKKKGRKDEDSDDESQSSHGGKKKPDITFMFQDEIEDCLRKHIQDAPEEFISELAEYLIKPLNKMYLEVVRSVFMSSTSASGTGRKRTIKDLQEEVSNLYNNIRLFEKGMKYFADDTQTALTKHLLKTVCTDITNLMFNFLASDFLMAVEEPAAITSDIRKKILSKLTEETKVALTKLHNSLNEKSIEDFLSCLDSATEACDIMVKKGDKKRERQILFQHRQALCEQLKVTEDPALILHLTAVLLFQLSTHSMLHAPGRCVPQIIAFLHSKIPEDQHTLLVKYQGLVVKQLVSQNKKTGQGEDPSSDELDKEQHDVTNATRKELQELSLSIKDLVLKSRKSSVTEE

binding [2]: binds
B2: 3 × Flag-tagged Ufl1 (protein, UniProt Q8CCJ3 1-793)
chain: B1 chain

binding [3]: no binding
binding [4]: no binding
B3: Ufl1 (co-immunoprecipitation of Figure S3C) (protein, UniProt Q8CCJ3 1-793)
chain: B1 chain
